Entries after “also recorded” stand apart in the source; their conditions may differ. Counter-ions that a name gives are not always drawn.
Tested on: TR-BBB cells
Test: Inhibition of [14C]L-citrulline uptake in TR-BBB cells by unlabeled amino acids, transporter inhibitors and drugs
Type: cell-based, rat
Settings: for activity at 2000 µM: Rattus norvegicus, 5 min, pH 7.4, read-out: Uptake of [14C]L-citrulline (% of control); for Effect on [14C]L-citrulline uptake: TR-BBB cells, unlabeled compound present
Procedure: The TR-BBB cells established from transgenic rats harboring the temperature-sensitive simian virus 40 large T-antigen, an in vitro BBB model, were cultured at 33 °C as described previously (21). TR-BBB cells were received from Professor Tetsuya Terasaki (Tohoku University, Japan) and were cultured with Dulbecco’s modified Eagle’s medium (Invitrogen, San Diego, CA), supplemented with 10% fetal bovine serum, 100 U/mL penicillin, 100 μg/mL streptomycin (Invitrogen, San Diego, CA) and 15 μg/L endothelial cell growth factor (Roche, Mannheim, Germany) at 33 °C in a humidified atmosphere of 5% CO2/air. On rat tail collagen type I-coated 24 well culture plates (IWAKI, Tokyo, Japan) initial seeding was carried out at 1 × 10^5 cells/well for the uptake study. After incubation for 2 days at 33 °C, the cultures became confluent and then they were used in the transport study. L-Citrulline free medium was used all experiments except for experiments on saturation kinetics of [^14C]L-citrulline uptake (Fig. 2), Lineweaver-Burk plots for [^14C]L-citrulline uptake (Fig. 4), or inhibitory effect of L-amino acids as a control (Table 2).
The [^14C] L-citrulline uptake study was performed according to the previous report. Briefly, extracellular fluid (ECF) buffer containing [^14C]L-citrulline (44.4 μM) in the presence or absence of unlabeled inhibitors was added to the TR-BBB cells and then incubated at pH 7.4 and 37 °C for the designated time (5 min). Uptake was terminated by the addition of ice-cold ECF buffer. A Na^+ free transport medium was prepared by using LiCl, choline chloride, sodium gluconate and KHCO3 instead of NaCl and NaHCO3, respectively. The cells were then solubilized by incubation overnight in 750 μL of 1 N NaOH at room temperature, and the measurement of radioactivity was performed in a liquid scintillation counter (LS6500; Beckman, Fullerton, CA). Cell to medium ratio (μL/mg protein) was calculated as follows: the radioactivity (dpm/μL) in the sample per milligram cell protein (dpm/mg protein).
To analyze the competitive nature of L-dopa and gabapentin for [^14C]L-citrulline uptake, Lineweaver-Burk plots were generated. The inhibitory constant (K i) was calculated from Eq. (2):2 V=Vmax⋅C/Km⋅1+I/Ki+C where I corresponds to the concentration of L-dopa or gabapentin, respectively.

Row | SMILES | activity at 2000 µM [%] | Effect on [14C]L-citrulline uptake
1 | COc1cc2c(cc1OC)C(=O)C(CC1CCN(Cc3ccccc3)CC1)C2 (stereo not shown) [Donepezil, Donepezil hydrochloride] | 85.5 ± 5.9 | no significant inhibition effect
2 | Nc1nc2ccc(OC(F)(F)F)cc2s1 [Riluzole, 2-amino-6-trifluoromethoxy benzothiazole] | 93.9 ± 8.3 | no effect; also recorded: no significant effects
